## Library screen at single concentrations

Amino acid sequences for entries named in this document (tags omitted). Residues count along the entry.
UniProt Q8IDJ8, 1-583: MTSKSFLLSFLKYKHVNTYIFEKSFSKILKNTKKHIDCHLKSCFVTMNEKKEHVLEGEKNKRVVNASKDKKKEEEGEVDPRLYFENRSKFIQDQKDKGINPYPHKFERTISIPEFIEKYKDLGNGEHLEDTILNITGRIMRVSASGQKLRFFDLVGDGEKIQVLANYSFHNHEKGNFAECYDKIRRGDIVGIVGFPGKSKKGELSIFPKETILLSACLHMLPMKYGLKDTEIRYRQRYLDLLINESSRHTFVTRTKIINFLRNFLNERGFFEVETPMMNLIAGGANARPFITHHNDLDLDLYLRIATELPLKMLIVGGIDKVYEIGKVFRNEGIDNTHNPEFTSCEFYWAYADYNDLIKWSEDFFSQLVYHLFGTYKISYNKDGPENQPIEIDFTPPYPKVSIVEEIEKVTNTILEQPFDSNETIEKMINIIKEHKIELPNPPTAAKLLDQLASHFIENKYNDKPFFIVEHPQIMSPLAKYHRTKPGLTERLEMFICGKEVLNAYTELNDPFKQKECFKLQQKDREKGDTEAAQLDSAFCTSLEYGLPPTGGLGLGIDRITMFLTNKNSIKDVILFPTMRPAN

Each number is a percent effect as filed. How 0% and 100% were set is not recorded. Most values in the screen are low, and negative values occur. The compounds are a random part of those screened.

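Lysine-tRNA ligase, Plasmodium falciparum 3D7 (UniProt Q8IDJ8). Enzyme assay of the cytosolic lysyl-tRNA synthetase in 384-well plates, read by luminescence. Tested at 30 µM. Direction is inferred from only a few compounds that gave an IC50; most scored high, so higher reads as stronger inhibition. About 69,000 compounds were tested under these conditions; 0.071% (about 49) showed 50% or more at least once.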

For O=C1[C@H]2CN(Cc3ccco3)C[C@H]2CN1c1ccsc1 the result was -0.7623%.
For COc1ccc(C(=O)N2CCN(c3cc(CCN)nc(C)n3)CC2)cc1 the result was 0.3064%.
For O=C(Nc1cccc2c1CCCC2)c1cccnc1N1CCCNCC1 the result was 5.544%.
For CCc1ccc(C(=O)N2CC[C@H](Oc3cccnc3C)[C@@H](O)CC2)cc1 the result was -1.44%.
For c1ccc(Cc2n[nH]c(C3CCOC3)n2)cc1 (centres unmarked) the result was 3.512%.
For CN(Cc1nnc(C2CC2)n1C)C1CCN(CCc2ccccc2)C1 (centres unmarked) the result was 5.52%.
For Cc1nn(C)cc1-c1cc(C(F)(F)F)c2c(C)nn(CC(=O)O)c2n1 the result was -1.112%.
For COc1cc(C(=O)NCc2ccc3c(c2)CCCN3C)cc(OC)c1Br the result was -0.4408%.
For CCOc1ccc(C(=O)N(Cc2cnn(C)c2)C(C)C)cc1OCC the result was 1.02%.
For CN1CCN(CCCOc2ccccc2CN2C[C@H]3CC[C@H]2C3)CC1 the result was 5.128%.
For c1csc(N2CCN(Cc3cc4n(n3)CCNC4)CC2)n1 the result was 1.511%.
For COCCC(=O)N1CCC2(COCc3cnc(N4CCOCC4)nc32)C1 (centres unmarked) the result was 4.588%.
For NC(=O)C1CCCN1Cc1ccccc1NC(=O)Cc1cccc(F)c1 (centres unmarked) the result was 0.4641%.
For Cc1ccc(CCN2CCCC23Cc2ccccc2CNC3=O)cc1 (centres unmarked) the result was -0.7003%.
For CCOC(C)c1noc(CN2CCN(Cc3cccc(F)c3)CC2)n1 (centres unmarked) the result was -1.987%.
For O=C([C@@H]1CCCO1)N1CCC(Cn2cc(-c3ccsc3)nn2)CC1 the result was 1.702%.
For Cn1cc(C(=O)N2CCN(Cc3cscn3)CC2)ccc1=O the result was 11.4%.
For CCOc1ncnc2c1CCN(c1cc(C(F)(F)F)ncn1)CC2 the result was 3.102%.
For CCS(=O)(=O)N1C[C@H]2CC[C@](O)(c3ccc(C)cc3)[C@H]2C1 the result was 1.482%.
For Cn1c(C2CCCN2C(=O)c2cn(CCN)nn2)nc2ccccc21 (centres unmarked) the result was 1.189%.
For CNC(=O)CC1CCN(C(=O)NCc2coc3ccccc23)CC1 the result was -10.58%.
For O=C(NCc1ccccc1)N1C[C@H]2C[C@H](C(=O)N3CCCC3)[C@@H](C1)O2 the result was 8.396%.
For CCN(CC1CN(Cc2ccccn2)CCO1)c1cccnn1 (centres unmarked) the result was 0.1144%.
For c1ccc(CCN2CCN(C3CCOC4(CCOCC4)C3)CC2)cc1 (centres unmarked) the result was 0.6989%.
For O=C(CCc1ccccn1)NC1CCCN(C2Cc3ccccc3C2)C1 (centres unmarked) the result was 0.9554%.
For COC(=O)C(C)(C)NC(=O)C1CC(=O)N(C2CC2)C1 (centres unmarked) the result was -23.32%.
For Cc1cc(C(=O)N2CC(=O)Nc3cnccc32)c(Cl)cc1F the result was 0.1574%.
For COc1ccc(C(=O)N2CCN(C(=O)Cn3nccc3C)CC2)cc1 the result was 3.703%.
For Cc1cccc(CC(=O)Nc2cnn(C3CCOC3)c2)c1 (centres unmarked) the result was 3.17%.
For COc1cccc2ccc(N3CCC(O)(C(=O)O)CC3)nc12 the result was -4.515%.
For CCC1CN(CC(=O)N2CCC2)CCN1CCOC (centres unmarked) the result was 2.071%.
For CCN(CCNC(=O)c1ccccc1OCCOC)C1CC1 the result was 2.976%.
For Cc1noc(CN2CCC(c3ccnn3CCO)CC2)n1 the result was 8.663%.

Some entries from above, unchanged:

compound,effect
CCN(CC1CN(Cc2ccccn2)CCO1)c1cccnn1 (centres unmarked),0.1144
Cc1ccc(CCN2CCCC23Cc2ccccc2CNC3=O)cc1 (centres unmarked),-0.7003
COc1cccc2ccc(N3CCC(O)(C(=O)O)CC3)nc12,-4.515
COc1ccc(C(=O)N2CCN(c3cc(CCN)nc(C)n3)CC2)cc1,0.3064

Source: ChEMBL document CHEMBL3988442, “University of Dundee, Small-Polar-MMV Screening Library” (2021).